Patent publication US20160369115A1, “POLARIZING PLATE COMPOSITION, POLARIZING PLATE PROTECTIVE FILM, POLARIZER, POLARIZING PLATE, LIQUID CRYSTAL DISPLAY DEVICE, AND COMPOUND USED IN THE LIQUID CRYSTAL DISPLAY DEVICE” (FUJIFILM Corporation, priority 2014, published 2016)

Tests used:
[1] = Evaluation of durability of polarizing plate, additive in polarizer (Example 2); conditions: added amount 1.0 per 100 parts by mass of polyvinyl alcohol resin, 410 nm
[2] = Evaluation of durability of polarizing plate, additive in adhesive layer (Example 3); conditions: added amount 10.0 per 100 parts by mass of the polyvinyl alcohol resin, film thickness 5 μm; for Durability of polarizer: amount of change of orthogonal transmittance (%) 60° C., 95%, 500 hours / Durability of polarizer: amount of change of orthogonal transmittance (%) 60° C., 95%, 1,000 hours / Durability of polarizer: amount of change of orthogonal transmittance (%) 80° C., Dry 500 hours / Durability of polarizer: amount of change of orthogonal transmittance (%) 80° C., Dry, 1,000 hours: 410 nm
[3] = Bleed-out properties in polarizer (haze evaluation); conditions: haze of polarizing plate; additive in polarizer, added amount 1.0 per 100 parts by mass of polyvinyl alcohol resin

COC(=O)Oc1c(Cc2ccccc2)c(=O)n(CS(=O)(=O)[O-])n1C.[Na+] [Example compound AH]
Durability of polarizer: amount of change of degree of polarization (%) 60° C., 95%, 500 hours [1]: A (The amount of change of the orthogonal transmittance before and after the elapse of time was equal to or greater than 0.05% and less than 2.0%.)
Durability of polarizer: amount of change of degree of polarization (%) 60° C., 95%, 1,000 hours [1]: A+ (The amount of change of the degree of polarization before and after the elapse of time was less than 1.0%.)
Durability of polarizer: amount of change of degree of polarization (%) 80° C., Dry, 500 hours [1]: A (The amount of change of the degree of polarization before and after the elapse of time was equal to or greater than 0.05% and less than 1.0%.)
Durability of polarizer: amount of change of degree of polarization (%) 80° C., Dry, 1,000 hours [1]: A+ (The amount of change of the degree of polarization before and after the elapse of time was less than 0.1%.)
Durability of polarizer: amount of change of orthogonal transmittance (%) 60° C., 95%, 500 hours [1]: A (The amount of change of the orthogonal transmittance before and after the elapse of time was equal to or greater than 0.1% and less than 0.4%.)
Durability of polarizer: amount of change of orthogonal transmittance (%) 60° C., 95%, 1,000 hours [1]: A+ (The amount of change of the orthogonal transmittance before and after the elapse of time was less than 0.5%.)
Durability of polarizer: amount of change of orthogonal transmittance (%) 80° C., Dry 500 hours [1]: A (The amount of change of the orthogonal transmittance before and after the elapse of time was equal to or greater than 0.05% and less than 0.1%.)
Durability of polarizer: amount of change of orthogonal transmittance (%) 80° C., Dry, 1,000 hours [1]: A+ (The amount of change of the orthogonal transmittance before and after the elapse of time was less than 0.1%.)
Durability of polarizer: amount of change of degree of polarization (%) 60° C., 95%, 500 hours [2]: A (The amount of change of the degree of polarization before and after the elapse of time was equal to or greater than 0.05% and less than 2.0%.)
Durability of polarizer: amount of change of degree of polarization (%) 60° C., 95%, 1,000 hours [2]: A+ (The amount of change of the degree of polarization before and after the elapse of time was less than 1.0%.)
Durability of polarizer: amount of change of degree of polarization (%) 80° C., Dry, 500 hours [2]: A (The amount of change of the degree of polarization before and alter the elapse of time was equal to or greater than 0.05% and less than 1.0%.)
Durability of polarizer: amount of change of degree of polarization (%) 80° C., Dry, 1,000 hours [2]: A+ (The amount of change of the degree of polarization before and after the elapse of time was less than 0.1%.)
Durability of polarizer: amount of change of orthogonal transmittance (%) 60° C., 95%, 500 hours [2]: A (The amount of change of the orthogonal transmittance before and after the elapse of time was equal to or greater than 0.1% and less than 0.4%.)
Durability of polarizer: amount of change of orthogonal transmittance (%) 60° C., 95%, 1,000 hours [2]: A+ (The amount of change of the orthogonal transmittance before and after the elapse of time was less than 0.5%.)
Durability of polarizer: amount of change of orthogonal transmittance (%) 80° C., Dry 500 hours [2]: A (The amount of change of the orthogonal transmittance before and after the elapse of time was equal to or greater than 0.05% and less than 0.1%.)
Durability of polarizer: amount of change of orthogonal transmittance (%) 80° C., Dry, 1,000 hours [2]: A+ (The amount of change of the orthogonal transmittance before and after the elapse of time was less than 0.1%.)
Bleed out [3]: A (The haze was less than 0.3%.)

COC(=O)Cc1c(Cc2ccc(S(=O)(=O)[O-])cc2S(=O)(=O)[O-])c(=O)[nH]c2ccccc12.[Na+].[Na+] [Example compound AJ]
Durability of polarizer: amount of change of degree of polarization (%) 60° C., 95%, 500 hours [1]: A+ (The amount of change of the degree of polarization before and after the elapse of time was less than 0.05%.)
Durability of polarizer: amount of change of degree of polarization (%) 60° C., 95%, 1,000 hours [1]: A+ (The amount of change of the degree of polarization before and after the elapse of time was less than 1.0%.)
Durability of polarizer: amount of change of degree of polarization (%) 80° C., Dry, 500 hours [1]: A+ (The amount of change of the degree of polarization before and after the elapse of time was less than 0.05%.)
Durability of polarizer: amount of change of degree of polarization (%) 80° C., Dry, 1,000 hours [1]: A+ (The amount of change of the degree of polarization before and after the elapse of time was less than 0.1%.)
Durability of polarizer: amount of change of orthogonal transmittance (%) 60° C., 95%, 500 hours [1]: A+ (The amount of change of the orthogonal transmittance before and after the elapse of time was less than 0.1%.)
Durability of polarizer: amount of change of orthogonal transmittance (%) 60° C., 95%, 1,000 hours [1]: A+ (The amount of change of the orthogonal transmittance before and after the elapse of time was less than 0.5%.)
Durability of polarizer: amount of change of orthogonal transmittance (%) 80° C., Dry 500 hours [1]: A+ (The amount of change of the orthogonal transmittance before and after the elapse of time was less than 0.05%.)
Durability of polarizer: amount of change of orthogonal transmittance (%) 80° C., Dry, 1,000 hours [1]: A+ (The amount of change of the orthogonal transmittance before and after the elapse of time was less than 0.1%.)
Durability of polarizer: amount of change of degree of polarization (%) 60° C., 95%, 500 hours [2]: A+ (The amount of change of the degree of polarization before and after the elapse of time was less than 0.05%.)
Durability of polarizer: amount of change of degree of polarization (%) 60° C., 95%, 1,000 hours [2]: A+ (The amount of change of the degree of polarization before and after the elapse of time was less than 1.0%.)
Durability of polarizer: amount of change of degree of polarization (%) 80° C., Dry, 500 hours [2]: A+ (The amount of change of the degree of polarization before and after the elapse of time was less than 0.05%.)
Durability of polarizer: amount of change of degree of polarization (%) 80° C., Dry, 1,000 hours [2]: A+ (The amount of change of the degree of polarization before and after the elapse of time was less than 0.1%.)
Durability of polarizer: amount of change of orthogonal transmittance (%) 60° C., 95%, 500 hours [2]: A+ (The amount of change of the orthogonal transmittance before and after the elapse of time was less than 0.1%.)
Durability of polarizer: amount of change of orthogonal transmittance (%) 60° C., 95%, 1,000 hours [2]: A+ (The amount of change of the orthogonal transmittance before and after the elapse of time was less than 0.5%.)
Durability of polarizer: amount of change of orthogonal transmittance (%) 80° C., Dry 500 hours [2]: A+ (The amount of change of the orthogonal transmittance before and after the elapse of time was less than 0.05%.)
Durability of polarizer: amount of change of orthogonal transmittance (%) 80° C., Dry, 1,000 hours [2]: A+ (The amount of change of the orthogonal transmittance before and after the elapse of time was less than 0.1%.)
Bleed out [3]: A (The haze was less than 0.3%.)
